According to PubChem BioAssay AID504444 (National Center for Advancing Translational Sciences (NCATS), 2011):
Screen size: about 360,000 compounds; about 7,500 (2.1%) were called active. Inconclusive results, whose numbers are uncertain, are shown with a selection of clear calls. Calls follow the shape of the dose curve; as a rule, active = well fitted inhibition curve with a large enough effect; inconclusive = small, poorly fitted or top-dose-only effect, or effect the other way; inactive = flat fitted curve, though single readings scatter. Where the call is inconclusive, the potency comes from a doubtful curve fit.

Assay: Nrf2 qHTS screen for inhibitors; also: nearly all actives have a fitted effect of over 60% in size
Settings: A549 ARE-Fluc reporter, luciferase luminescence, 18-24 h; series mostly up to 46 µM
In short: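 Reporter: ARE-Fluc in A549. Exposure: 18-24 h, 37 °C, 5% CO2, 5% FBS OPTI-MEM. Readouts: fluorescent cytotoxicity (CellTiter-Fluor), then luminescent Nrf2 signal after BugLite.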
Potency is read from the fitted curve at half-maximal effect.

Row | SMILES | Potency
1 | N#Cc1ccccc1CN1C(=O)NC2(CCCCCC2)C1=O | inactive
2 | O=C(NCCc1ccccc1)c1ccc(S(=O)(=O)N2CCCC2)cc1 | inconclusive: 20.6 µM [activator, partial curve, poor fit]
3 | CN(C)S(=O)(=O)c1cccc(N=C2NN=C(c3ccccc3)CS2)c1 | inconclusive: 23.1 µM [falling, single point]
4 | Cc1nc(/N=C\N(C)C)sc1C(=O)Nc1ccccc1 | inconclusive: 2.59 µM [activator, partial curve, poor fit]
5 | c1coc(-c2nn3c(Cn4nnc5ccccc54)nnc3s2)c1 | inactive
6 | COC(=O)Cc1ccc(NC(=O)c2ccc3c(c2)C(=O)N(Cc2ccco2)C3=O)cc1 | inconclusive: 11.6 µM [falling, single point]
7 | COc1cccc(C(=O)N2CCN(c3ccc(N4CCOCC4)nn3)CC2)c1 | inactive
8 | COc1cc(N)c2ncccc2c1Br | inconclusive: 20.6 µM [activator, partial curve, poor fit]
9 | c1nc(Nc2ccc(N3CCOCC3)cc2)c2ccsc2n1 | inconclusive: 5.17 µM [activator, full curve, poor fit]
10 | C=CCNC(=O)/C(C#N)=C/c1c(N(Cc2ccccc2)Cc2ccccc2)nc2ccccn2c1=O | active: 25.9 µM
11 | Cc1ccc(Cn2nc(-c3ccccc3)nc2-c2ccccc2)cc1 | inconclusive: 8.2 µM [activator, partial curve, poor fit]
12 | O=C(c1cccs1)N1CCN=C1SCc1ccccc1F | inconclusive: 13 µM [falling, partial curve, poor fit]
13 | COc1ccc(C)cc1NC(=O)c1cccc(-c2ccc(OC(C)=O)cc2)c1 | active: 16.4 µM
14 | CCN(CC)S(=O)(=O)c1ccc(NC(=O)c2c(C)oc3ncnc(N4CCOCC4)c23)cc1 | inactive
15 | Clc1ccc(/C=N/Nc2nn[nH]n2)cc1 | inconclusive: 2.31 µM [activator, full curve, poor fit]
16 | O=C(Nc1ccc2c(c1)OCCO2)NC1(C(F)(F)F)Oc2ccccc2O1 | inconclusive: 20.6 µM [activator, partial curve]
17 | CCn1cc(C(C)NC(=O)COc2ccc(Cl)cc2C)c(C)n1 (stereo not drawn) | inconclusive: 25.9 µM [falling, partial curve, poor fit]
18 | Cc1ccc2[nH]c(=O)c(CN(Cc3cccs3)Cc3nnnn3CC3CCCO3)cc2c1 (stereo not drawn) | inconclusive: 13 µM [falling, partial curve, poor fit]
19 | CCOc1ccccc1NC(=O)C(C)n1nnc2sc3c(c2c1=O)CCCC3 (stereo not drawn) | inconclusive: 29.1 µM [activator, partial curve, poor fit]
20 | Cc1ccc(C)c(OCC(O)CN2CCN(CCN3C(=O)c4cccc5cccc(c45)C3=O)CC2)c1 (stereo not drawn) | inconclusive: 29.1 µM [falling, single point]
21 | CC(=O)N/C(N)=N/c1nc2cc(C)ccc2o1 | inconclusive: 9.2 µM [activator, partial curve]
22 | O=C(c1ccco1)N1CCN(c2ncnc3c2cnn3-c2ccccc2)CC1 | inconclusive: 4.11 µM [activator, partial curve]
23 | Cc1nc2sc(C(=O)Nc3ccccc3Cc3ccccc3)c(C)c2c(=O)[nH]1 | inconclusive: 5.8 µM [falling, partial curve, poor fit]

Row | SMILES | Potency
24 | Cc1ccc(CCNC(=O)c2ccc(Cn3c(=O)c4cccn4c4cccnc43)cc2)cc1 | inconclusive: 18.4 µM [falling, single point]
25 | Cc1cc(C(=O)Nc2ccccc2[N+](=O)[O-])cs1 | inconclusive: 29.1 µM [activator, single point]
26 | Cc1nc2sc(C(=O)c3ccccc3)c(N)c2c2c1CCCC2 | inconclusive: 16.4 µM [activator, single point]
27 | NC(=O)c1ccccc1NC(=S)NC(=O)c1ccc(Br)o1 | inconclusive: 1.84 µM [activator, full curve]
28 | COCCn1c(C)cc(C(=O)CN2c3cccc4cccc(c34)S2(=O)=O)c1C | inconclusive: 4.61 µM [activator, full curve]
29 | COc1ccccc1-c1cc(C(F)(F)F)n2ncc(C(=O)N3CCc4ccccc4C3)c2n1 | inconclusive: 29.1 µM [falling, single point]
30 | O=C(CC(Nc1cccc(Cl)c1Cl)C(=O)O)c1ccccc1 (stereo not drawn) | inactive
31 | O=C(Nc1cccc(S(=O)(=O)Nc2ccc(Cl)cc2)c1)c1ccccn1 | active: 8.2 µM
32 | CCOC(=O)/C(=C\c1cccc(O)c1)c1nc2sc(C)c(C)c2c(=O)[nH]1 | inconclusive: 16.4 µM [falling, partial curve, poor fit]
33 | CCOc1ccc(NC(=O)CSc2nc(=O)n(CCN3CCOCC3)c3c2CCCC3)cc1 | inactive
34 | CC(=O)c1ccc(NC(=O)CSc2nc(N3CCOCC3)nc(N3CCOCC3)n2)cc1 | inactive
35 | COc1ccc(C(=O)CC(=O)c2ccccc2)cc1 | inconclusive: 9.2 µM [activator, partial curve]
36 | O=C(CSc1cccs1)Nc1ccc2ccccc2c1 | inconclusive: 0.058 µM [activator, partial curve, poor fit]
37 | COC(=O)C1=C(C)NC(=O)/C1=C\N(C)C | inconclusive: 7.31 µM [falling, partial curve, poor fit]
38 | COc1ccc(N=C(c2ccccc2)c2c(C)[nH]n(-c3ccccc3)c2=O)c(OC)c1 | inconclusive: 10.3 µM [falling, partial curve]
39 | COc1cccc(C2=NOC(C(=O)Nc3cc(OC)c(OC)c(OC)c3)C2)c1 (stereo not drawn) | inconclusive: 20.6 µM [falling, single point]
40 | Nc1cc2c(cc1Cl)-c1ccccc1C2 | inconclusive: 20.6 µM [activator, single point]
41 | CN(/N=C/c1ccccc1O)C(=S)c1ccccc1 | inactive
42 | O=C1C2C(c3ccccc3)CC=CC2C(c2ccc(C(F)(F)F)cc2)N1Cc1ccccc1 (stereo not drawn) | inconclusive: 29.1 µM [falling, single point]
43 | C/C(=N\Nc1nc(-c2ccccc2O)nc2ccccc12)c1ccccc1 | inactive
44 | CCOc1ccc2nc(NCCNC(=O)C(C)C)c(C)cc2c1 | inactive
45 | CC1CCN(C(=O)Oc2ccccc2)CC1 | inconclusive: 6.51 µM [falling, single point]
46 | C=CCn1c(CSCc2ccc(Cl)cc2)nnc1SCC(=O)NCc1ccccc1 | inconclusive: 29.1 µM [activator, single point]

Row | SMILES | Potency
47 | COc1ccc(NC(=O)c2cc(S(=O)(=O)Nc3ccc(OC)cc3)cs2)cc1 | inconclusive: 29.1 µM [falling, single point]
48 | O=C1c2ccccc2C(=O)c2c1ccc(C(=O)N1CCCCC1)c2NCCO | inactive
49 | COc1cc(NC(=O)c2ccc(S(=O)(=O)N(C)c3ccccc3)cc2)cc(OC)c1 | inconclusive: 20.6 µM [falling, partial curve]
50 | Cc1ccc(Cl)cc1N1CCN(C(=O)c2cnn(-c3ccc(Cl)cc3)c2C2CCNCC2)CC1 | inactive
51 | CC1CCC(C(=O)c2c(O)c3ccccc3oc2=O)CC1 (stereo not drawn) | inconclusive: 2.91 µM [activator, partial curve, poor fit]
52 | COC(=O)Nc1ccc(S(=O)(=O)NCc2ccccn2)cc1 | inconclusive: 5.8 µM [falling, partial curve]
53 | CNc1ccccc1C(C)(C)c1cc(-c2cccc(OC)c2)no1 | inconclusive: 13 µM [falling, partial curve, poor fit]
54 | Cc1ccccc1NC(=O)CSc1nc2ccccc2c(=O)n1C | inconclusive: 25.9 µM [falling, single point]
55 | N#Cc1c[nH]n2c(NC3CCCC3)c(-c3ccc(Br)cc3)nc12 | inconclusive: 20.6 µM [falling, single point]
56 | O=C(O)c1cccc(NC(=O)c2cccc(S(=O)(=O)Nc3cccc(F)c3)c2)c1 | inconclusive: 0.0046 µM [falling, full curve, poor fit]
57 | CCCCCCCCC1=NCCc2c1[nH]c1ccccc21 | inconclusive: 9.2 µM [activator, partial curve, poor fit]
58 | CCCC(c1nnnn1CC1CCCO1)N1CCN(c2nc3ccccc3s2)CC1 (stereo not drawn) | inactive
59 | O=C(COc1ccc(Br)cc1CNCCc1ccccc1)NCc1ccccc1 | inactive
60 | CCc1cc2c(=O)c(-c3ccc4c(c3)OCCO4)c(C)oc2cc1OS(C)(=O)=O | active: 23.1 µM
61 | O=C(NCc1ccccc1)c1cccc(COc2ccc(Cl)cc2)c1 | inconclusive: 0.517 µM [activator, partial curve, poor fit]
62 | Cc1cccc(C(=O)Nc2sc3c(c2C(=O)O)CCC3)c1 | inconclusive: 5.8 µM [falling, full curve]
63 | C[C@@H](NC(=O)c1nc[nH]c1C(=O)N[C@@H](CCCCNC(=O)OC(C)(C)C)C(=O)OC(C)(C)C)c1ccccc1 | active: 16.4 µM
64 | C[C@]12CCC(=O)C=C1C=CC1C2CC[C@@]2(C)C1CC[C@@]21CCC(=O)O1 (stereo partly drawn) | inactive
65 | O=C(CC1C(=O)NCCN1Cc1cccc(F)c1)NC1CCCCCC1 (stereo not drawn) | inactive
66 | CCCNC(=O)C1CCC(Cn2c(=O)c3sccc3n(CC(=O)N3CCCC(C)C3)c2=O)CC1 (stereo not drawn) | inconclusive: 1.3 µM [activator, partial curve, poor fit]
67 | CCOc1ccc(-c2noc(COC)n2)cc1OC | inconclusive: 13 µM [activator, partial curve]
68 | CN(C)c1ccc(NC(=O)/C=C/c2ccccc2Cl)cc1 | inconclusive: 16.4 µM [activator, partial curve, poor fit]
